Measurements reported in publication PMC6514072.

Chains of the proteins cited; added tags and fusions are not shown. Lines headed by an entry give the natural chain unless they say otherwise; changes in a name come on top. Residues count along the entry.
UniProt Q12802: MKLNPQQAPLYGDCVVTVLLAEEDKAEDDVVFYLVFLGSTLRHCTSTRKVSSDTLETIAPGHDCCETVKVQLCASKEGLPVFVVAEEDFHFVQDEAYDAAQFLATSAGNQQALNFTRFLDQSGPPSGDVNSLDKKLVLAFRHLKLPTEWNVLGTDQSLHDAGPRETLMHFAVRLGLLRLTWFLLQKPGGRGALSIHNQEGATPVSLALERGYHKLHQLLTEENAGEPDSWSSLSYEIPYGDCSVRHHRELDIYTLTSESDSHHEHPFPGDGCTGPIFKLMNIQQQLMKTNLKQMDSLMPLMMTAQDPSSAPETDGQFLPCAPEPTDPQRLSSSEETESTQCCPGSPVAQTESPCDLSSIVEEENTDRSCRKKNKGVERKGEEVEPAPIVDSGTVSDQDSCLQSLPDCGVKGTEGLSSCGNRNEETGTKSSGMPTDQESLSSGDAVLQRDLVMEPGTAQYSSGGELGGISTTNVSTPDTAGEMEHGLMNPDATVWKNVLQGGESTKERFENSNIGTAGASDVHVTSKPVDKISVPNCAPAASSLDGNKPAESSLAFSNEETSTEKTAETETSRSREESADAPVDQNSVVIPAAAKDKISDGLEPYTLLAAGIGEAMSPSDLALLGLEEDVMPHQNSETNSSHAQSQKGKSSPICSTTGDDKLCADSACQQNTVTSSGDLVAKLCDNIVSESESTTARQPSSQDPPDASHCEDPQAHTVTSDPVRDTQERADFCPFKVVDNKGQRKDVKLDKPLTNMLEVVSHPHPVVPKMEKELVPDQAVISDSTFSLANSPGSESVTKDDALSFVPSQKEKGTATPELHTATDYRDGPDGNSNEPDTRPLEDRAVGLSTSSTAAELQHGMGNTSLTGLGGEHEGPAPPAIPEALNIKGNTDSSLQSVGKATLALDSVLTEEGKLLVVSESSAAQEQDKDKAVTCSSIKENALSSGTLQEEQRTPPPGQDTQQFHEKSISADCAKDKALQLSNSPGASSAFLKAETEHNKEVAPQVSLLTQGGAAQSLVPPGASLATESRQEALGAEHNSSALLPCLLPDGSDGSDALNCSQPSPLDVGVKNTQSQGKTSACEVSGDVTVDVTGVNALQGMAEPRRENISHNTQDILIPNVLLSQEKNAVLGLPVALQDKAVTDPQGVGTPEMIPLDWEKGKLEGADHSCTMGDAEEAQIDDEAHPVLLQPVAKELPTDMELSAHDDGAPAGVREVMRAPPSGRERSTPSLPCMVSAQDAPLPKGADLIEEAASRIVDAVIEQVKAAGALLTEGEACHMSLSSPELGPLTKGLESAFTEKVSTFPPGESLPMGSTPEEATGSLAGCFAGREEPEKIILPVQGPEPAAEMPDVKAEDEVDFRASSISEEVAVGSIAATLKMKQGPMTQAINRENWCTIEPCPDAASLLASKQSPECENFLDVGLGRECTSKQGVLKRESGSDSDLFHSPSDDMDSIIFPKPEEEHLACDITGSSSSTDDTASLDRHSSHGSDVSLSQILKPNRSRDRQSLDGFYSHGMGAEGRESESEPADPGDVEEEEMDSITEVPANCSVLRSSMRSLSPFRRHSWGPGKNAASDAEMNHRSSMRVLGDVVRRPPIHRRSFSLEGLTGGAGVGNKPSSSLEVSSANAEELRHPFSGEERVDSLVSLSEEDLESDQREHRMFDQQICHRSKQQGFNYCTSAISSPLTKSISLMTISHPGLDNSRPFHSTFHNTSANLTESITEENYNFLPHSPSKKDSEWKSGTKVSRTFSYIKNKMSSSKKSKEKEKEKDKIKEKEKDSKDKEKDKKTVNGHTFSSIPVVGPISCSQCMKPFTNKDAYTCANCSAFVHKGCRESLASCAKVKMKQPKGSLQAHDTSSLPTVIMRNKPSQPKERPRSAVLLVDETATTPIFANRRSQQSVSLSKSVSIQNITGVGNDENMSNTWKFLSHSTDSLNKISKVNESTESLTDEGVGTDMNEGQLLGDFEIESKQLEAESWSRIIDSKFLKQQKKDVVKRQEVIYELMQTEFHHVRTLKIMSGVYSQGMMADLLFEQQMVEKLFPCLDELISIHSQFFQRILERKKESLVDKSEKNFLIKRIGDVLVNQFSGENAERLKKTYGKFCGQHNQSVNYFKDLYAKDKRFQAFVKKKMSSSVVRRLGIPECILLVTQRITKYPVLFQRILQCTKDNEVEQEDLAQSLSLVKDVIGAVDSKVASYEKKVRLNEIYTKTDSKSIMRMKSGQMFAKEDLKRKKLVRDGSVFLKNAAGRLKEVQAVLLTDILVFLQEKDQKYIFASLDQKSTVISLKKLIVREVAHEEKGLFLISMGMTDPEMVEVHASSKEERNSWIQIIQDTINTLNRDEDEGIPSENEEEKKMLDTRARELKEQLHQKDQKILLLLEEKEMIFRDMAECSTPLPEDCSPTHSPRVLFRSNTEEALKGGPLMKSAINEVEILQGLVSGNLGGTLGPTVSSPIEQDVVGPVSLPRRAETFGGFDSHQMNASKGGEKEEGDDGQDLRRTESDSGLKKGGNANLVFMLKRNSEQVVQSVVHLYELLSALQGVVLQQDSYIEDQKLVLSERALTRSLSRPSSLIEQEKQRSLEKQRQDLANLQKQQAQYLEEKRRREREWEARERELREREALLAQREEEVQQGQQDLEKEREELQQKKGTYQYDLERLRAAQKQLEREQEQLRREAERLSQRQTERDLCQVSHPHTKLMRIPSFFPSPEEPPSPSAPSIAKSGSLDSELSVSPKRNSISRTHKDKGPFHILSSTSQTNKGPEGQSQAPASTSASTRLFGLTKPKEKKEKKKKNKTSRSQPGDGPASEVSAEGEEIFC
UniProt P54753, residues 34-998: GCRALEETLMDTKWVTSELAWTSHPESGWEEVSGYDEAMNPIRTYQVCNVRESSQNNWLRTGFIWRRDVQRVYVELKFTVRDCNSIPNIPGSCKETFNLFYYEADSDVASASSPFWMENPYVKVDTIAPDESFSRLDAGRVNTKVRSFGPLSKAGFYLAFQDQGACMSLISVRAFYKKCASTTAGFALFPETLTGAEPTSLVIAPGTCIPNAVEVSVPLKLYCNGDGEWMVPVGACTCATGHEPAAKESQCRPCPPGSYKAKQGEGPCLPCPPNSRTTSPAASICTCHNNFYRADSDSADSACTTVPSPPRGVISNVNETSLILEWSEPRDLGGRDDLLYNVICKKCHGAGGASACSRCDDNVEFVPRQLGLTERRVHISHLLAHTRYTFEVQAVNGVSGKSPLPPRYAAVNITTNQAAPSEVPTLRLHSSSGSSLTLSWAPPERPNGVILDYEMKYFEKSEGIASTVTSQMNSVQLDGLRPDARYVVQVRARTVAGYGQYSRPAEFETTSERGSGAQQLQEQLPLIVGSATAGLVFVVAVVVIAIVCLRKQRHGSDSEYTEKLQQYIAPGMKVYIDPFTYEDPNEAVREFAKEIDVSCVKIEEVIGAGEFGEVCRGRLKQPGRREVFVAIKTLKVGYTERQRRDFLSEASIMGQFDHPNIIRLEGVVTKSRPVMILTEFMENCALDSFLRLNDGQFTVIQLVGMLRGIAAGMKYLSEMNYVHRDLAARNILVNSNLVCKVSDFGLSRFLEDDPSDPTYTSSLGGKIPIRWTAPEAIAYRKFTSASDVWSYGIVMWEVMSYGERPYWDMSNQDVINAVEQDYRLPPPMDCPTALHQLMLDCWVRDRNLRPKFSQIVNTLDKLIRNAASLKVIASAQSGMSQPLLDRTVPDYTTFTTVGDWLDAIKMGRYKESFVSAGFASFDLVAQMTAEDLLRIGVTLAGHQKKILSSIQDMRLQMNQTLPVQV
UniProt Q9UGP4: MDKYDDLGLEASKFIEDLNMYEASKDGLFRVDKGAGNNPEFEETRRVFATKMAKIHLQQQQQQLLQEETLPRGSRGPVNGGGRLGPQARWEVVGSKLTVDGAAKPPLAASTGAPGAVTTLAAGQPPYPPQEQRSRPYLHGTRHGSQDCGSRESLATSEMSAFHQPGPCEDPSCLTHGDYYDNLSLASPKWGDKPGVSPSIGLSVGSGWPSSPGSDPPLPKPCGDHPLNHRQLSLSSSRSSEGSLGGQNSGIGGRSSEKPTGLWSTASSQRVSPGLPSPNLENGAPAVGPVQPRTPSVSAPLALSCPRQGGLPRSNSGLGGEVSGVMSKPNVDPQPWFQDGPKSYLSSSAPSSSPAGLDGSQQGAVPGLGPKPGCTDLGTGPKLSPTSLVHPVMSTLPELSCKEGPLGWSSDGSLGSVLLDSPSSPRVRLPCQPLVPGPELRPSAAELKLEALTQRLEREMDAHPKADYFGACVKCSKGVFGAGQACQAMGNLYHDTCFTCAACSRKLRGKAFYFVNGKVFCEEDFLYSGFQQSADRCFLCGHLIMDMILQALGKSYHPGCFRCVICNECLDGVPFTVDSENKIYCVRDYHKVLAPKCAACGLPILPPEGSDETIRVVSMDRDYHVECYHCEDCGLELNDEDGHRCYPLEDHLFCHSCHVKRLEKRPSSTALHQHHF
UniProt P01033, residues 24-207: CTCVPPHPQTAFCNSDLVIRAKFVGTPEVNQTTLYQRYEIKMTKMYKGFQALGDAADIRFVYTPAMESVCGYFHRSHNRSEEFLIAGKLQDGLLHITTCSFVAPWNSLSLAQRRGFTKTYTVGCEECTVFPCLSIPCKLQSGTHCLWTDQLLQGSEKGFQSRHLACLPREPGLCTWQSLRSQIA
UniProt Q92928: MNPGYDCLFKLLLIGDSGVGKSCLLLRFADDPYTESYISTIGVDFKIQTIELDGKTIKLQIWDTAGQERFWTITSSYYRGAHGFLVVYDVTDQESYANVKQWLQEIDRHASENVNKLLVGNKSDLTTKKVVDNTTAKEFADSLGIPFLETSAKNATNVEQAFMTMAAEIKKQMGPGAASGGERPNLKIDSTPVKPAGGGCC
UniProt Q9P289: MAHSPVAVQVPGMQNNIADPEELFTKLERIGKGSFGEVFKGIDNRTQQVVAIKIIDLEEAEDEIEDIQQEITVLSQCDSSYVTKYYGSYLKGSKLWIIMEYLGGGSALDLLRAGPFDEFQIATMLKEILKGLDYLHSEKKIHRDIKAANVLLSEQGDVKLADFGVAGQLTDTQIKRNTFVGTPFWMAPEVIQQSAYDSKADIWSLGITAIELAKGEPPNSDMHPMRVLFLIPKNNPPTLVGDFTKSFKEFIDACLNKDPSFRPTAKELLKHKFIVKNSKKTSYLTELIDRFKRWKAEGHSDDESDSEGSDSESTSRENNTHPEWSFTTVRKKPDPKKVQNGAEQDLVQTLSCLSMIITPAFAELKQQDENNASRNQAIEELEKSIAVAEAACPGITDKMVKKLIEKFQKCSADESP
UniProt P04350: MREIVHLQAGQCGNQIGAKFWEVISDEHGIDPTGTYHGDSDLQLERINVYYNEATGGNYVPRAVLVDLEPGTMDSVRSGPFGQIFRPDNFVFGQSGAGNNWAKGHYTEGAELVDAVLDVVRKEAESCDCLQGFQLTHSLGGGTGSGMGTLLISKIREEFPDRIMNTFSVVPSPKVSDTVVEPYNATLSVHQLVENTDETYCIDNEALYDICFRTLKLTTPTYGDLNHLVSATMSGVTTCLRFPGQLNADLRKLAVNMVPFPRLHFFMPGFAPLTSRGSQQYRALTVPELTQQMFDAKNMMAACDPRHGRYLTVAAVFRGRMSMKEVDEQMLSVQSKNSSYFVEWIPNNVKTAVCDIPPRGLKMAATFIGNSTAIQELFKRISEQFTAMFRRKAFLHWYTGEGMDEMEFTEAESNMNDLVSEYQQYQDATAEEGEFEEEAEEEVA
UniProt P14780: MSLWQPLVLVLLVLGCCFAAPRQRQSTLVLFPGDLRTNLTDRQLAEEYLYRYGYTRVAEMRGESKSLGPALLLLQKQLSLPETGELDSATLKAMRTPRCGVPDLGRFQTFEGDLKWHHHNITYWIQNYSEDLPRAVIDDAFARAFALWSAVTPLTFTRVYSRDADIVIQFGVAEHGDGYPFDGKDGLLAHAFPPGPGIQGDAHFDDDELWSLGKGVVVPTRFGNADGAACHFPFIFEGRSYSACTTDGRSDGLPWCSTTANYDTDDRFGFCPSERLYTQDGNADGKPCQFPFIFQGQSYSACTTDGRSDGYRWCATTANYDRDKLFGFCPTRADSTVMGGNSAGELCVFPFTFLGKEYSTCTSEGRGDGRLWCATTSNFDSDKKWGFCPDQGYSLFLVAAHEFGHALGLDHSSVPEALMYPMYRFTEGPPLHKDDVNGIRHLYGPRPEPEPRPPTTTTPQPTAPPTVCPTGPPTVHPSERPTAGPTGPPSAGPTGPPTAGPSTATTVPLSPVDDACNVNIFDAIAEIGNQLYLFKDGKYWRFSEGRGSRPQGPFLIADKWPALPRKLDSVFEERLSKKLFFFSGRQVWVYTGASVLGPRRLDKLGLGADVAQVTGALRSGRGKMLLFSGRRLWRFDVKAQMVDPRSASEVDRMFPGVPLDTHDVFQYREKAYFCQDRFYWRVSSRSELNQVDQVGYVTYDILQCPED

Tests used:
[1] = target: NEU1 sialidase (endogenous, plasma membrane of macrophages) (human (endogenous in THP-1)) (UniProt Q99519); test: affinity purification with mass spectrometry; 4.8 x 10^8 macrophages differentiated from THP-1 cells; surface biotinylation (sulfo-NHS-LC-biotin), lysis in HEPES buffer pH 7.5 with 1% Triton X-100, monomeric avidin agarose, elution with 10 mM biotin, then immunoprecipitation with rabbit polyclonal anti-NEU1 on protein G Sepharose (overnight, 4 °C); SDS-PAGE, 23 bands, LC-MS/MS; rabbit IgG control; two independent purifications
[2] = target: NEU1 sialidase (endogenous, plasma membrane of macrophages) (human (endogenous in THP-1)) (UniProt Q99519); test: as above; remark: listed apart in the source

5′-AMP-activated protein kinase subunit gamma-2 (from UniProt Q9UGJ0 1-569)
binding [1]: binds

14–3–3 protein sigma (from UniProt P31947 1-248)
binding [1]: binds

A-kinase anchor protein 9 (from UniProt Q99996 1-3907)
binding [1]: binds

A-kinase anchor protein 13 (from UniProt Q12802 1-2813)
binding [1]: binds

Actin-related protein 2/3 complex subunit 1B (from UniProt O15143 1-372)
binding [1]: binds

B-cell receptor CD22 (from UniProt P20273 20-847)
binding [1]: binds

BTB/POZ domain-containing protein KCTD12 (from UniProt Q96CX2 1-325)
binding [1]: binds

Beta-actin-like protein 2 (from UniProt Q562R1 1-376)
binding [1]: binds

C5a anaphylatoxin chemotactic receptor 1 (from UniProt P21730 1-350)
binding [1]: binds

CD63 antigen (from UniProt P08962 1-238)
binding [1]: binds

Copine-3 (from UniProt O75131 1-537)
binding [1]: binds

Cytohesin-1 (from UniProt Q15438 1-398)
binding [1]: binds

Ephrin type-B receptor 3 (from UniProt P54753 34-998)
binding [1]: binds

Fermitin family homolog 3 (from UniProt Q86UX7 1-667)
binding [1]: binds

G-protein-coupled receptor 98 (from UniProt Q8WXG9 30-6306)
binding [1]: binds

LIM domain-containing protein 1 (from UniProt Q9UGP4 1-676)
binding [1]: binds

Metalloproteinase inhibitor 1 (from UniProt P01033 24-207)
binding [1]: binds

Mitogen-activated protein kinase 14 (from UniProt Q16539 1-360)
binding [1]: binds

Myosin regulatory light chain 12B (from UniProt O14950 1-172)
binding [1]: binds

Platelet glycoprotein 4 (CD36), endogenous in macrophages (from UniProt P16671 1-472) (receptor)
binding [1]: binds

Profilin-1 (from UniProt P07737 1-140)
binding [1]: binds

Putative Ras-related protein Rab-1C (from UniProt Q92928 1-201)
binding [1]: binds

Ras-related protein Rab-1B (from UniProt Q9H0U4 1-201)
binding [1]: binds

Receptor-type tyrosine-protein phosphatase beta (from UniProt P23467 23-1997)
binding [1]: binds

Receptor-type tyrosine-protein phosphatase eta (from UniProt Q12913 36-1337)
binding [1]: binds

Serine/threonine-protein kinase 25 (from UniProt O00506 1-426)
binding [1]: binds

Serine/threonine-protein kinase 26 (from UniProt Q9P289 1-416)
binding [1]: binds

TRAF2 and NCK-interacting protein kinase (from UniProt Q9UKE5 1-1360)
binding [1]: binds

Tubulin alpha-3E chain (from UniProt Q6PEY2 1-450)
binding [1]: binds

Tubulin beta-2B chain (from UniProt Q9BVA1 1-445)
binding [1]: binds

Tubulin beta-4A chain (from UniProt P04350 1-444)
binding [1]: binds

integrin beta-2 (from UniProt P05107 23-769)
binding [1]: binds

matrix metalloproteinase-9 (from UniProt P14780)
binding [1]: binds

toll-like receptor 2 (from UniProt O60603 21-784)
binding [1]: binds

B1: Protein phosphatase 1F (protein, UniProt P49593 1-454)
chain: MSSGAPQKSSPMASGAEETPGFLDTLLQDFPALLNPEDPLPWKAPGTVLSQEEVEGELAELAMGFLGSRKAPPPLAAALAHEAVSQLLQTDLSEFRKLPREEEEEEEDDDEEEKAPVTLLDAQSLAQSFFNRLWEVAGQWQKQVPLAARASQRQWLVSIHAIRNTRRKMEDRHVSLPSFNQLFGLSDPVNRAYFAVFDGHGGVDAARYAAVHVHTNAARQPELPTDPEGALREAFRRTDQMFLRKAKRERLQSGTTGVCALIAGATLHVAWLGDSQVILVQQGQVVKLMEPHRPERQDEKARIEALGGFVSHMDCWRVNGTLAVSRAIGDVFQKPYVSGEADAASRALTGSEDYLLLACDGFFDVVPHQEVVGLVQSHLTRQQGSGLRVAEELVAAARERGSHDNITVMVVFLRDPQELLEGGNQGEGDPQAEGRRQDLPSSLPEPETQAPPRS
binding [2]: binds

B2: Nitric oxide synthase-interacting protein (protein, UniProt Q9Y314 1-301)
chain: MTRHGKNCTAGAVYTYHEKKKDTAASGYGTQNIRLSRDAVKDFDCCCLSLQPCHDPVVTPDGYLYEREAILEYILHQKKEIARQMKAYEKQRGTRREEQKELQRAASQDHVRGFLEKESAIVSRPLNPFTAKALSGTSPDDVQPGPSVGPPSKDKDKVLPSFWIPSLTPEAKATKLEKPSRTVTCPMSGKPLRMSDLTPVHFTPLDSSVDRVGLITRSERYVCAVTRDSLSNATPCAVLRPSGAVVTLECVEKLIRKDMVDPVTGDKLTDRDIIVLQRGGTGFAGSGVKLQAEKSRPVMQA
binding [2]: binds

B3: Tissue factor pathway inhibitor 2 (protein, UniProt P48307 23-235)
chain: DAAQEPTGNNAEICLLPLDYGPCRALLLRYYYDRYTQSCRQFLYGGCEGNANNFYTWEACDDACWRIEKVPKVCRLQVSVDDQCEGSTEKYFFNLSSMTCEKFFSGGCHRNRIENRFPDEATCMGFCAPKKIPSFCYSPKDEGLCSANVTRYYFNPRYRTCDAFTYTGCGGNDNNFVSREDCKRACAKALKKKKKMPKLRFASRIRKIRKKQF
binding [2]: binds

B4: Guanylyl cyclase-activating protein 2 (protein, UniProt Q9UMX6 1-200)
chain: MGQEFSWEEAEAAGEIDVAELQEWYKKFVMECPSGTLFMHEFKRFFKVTDDEEASQYVEGMFRAFDKNGDNTIDFLEYVAALNLVLRGTLEHKLKWTFKIYDKDGNGCIDRLELLNIVEGIYQLKKACRRELQTEQGQLLTPEEVVDRIFLLVDENGDGQLSLNEFVEGARRDKWVMKMLQMDMNPSSWLAQQRRKSAMF
binding [2]: binds

B5: CD81 antigen (protein, UniProt P60033 1-236)
chain: MGVEGCTKCIKYLLFVFNFVFWLAGGVILGVALWLRHDPQTTNLLYLELGDKPAPNTFYVGIYILIAVGAVMMFVGFLGCYGAIQESQCLLGTFFTCLVILFACEVAAGIWGFVNKDQIAKDVKQFYDQALQQAVVDDDANNAKAVVKTFHETLDCCGSSTLTALTTSVLKNNLCPSGSNIISNLFKEDCHQKIDDLFSGKLYLIGIAAIVVAVIMIFEMILSMVLCCGIRNSSVY
binding [2]: binds

Read-outs that look alike come from different tables or passages of the source. Results are given in words; binding and its absence hold for the method and conditions named. In cells and extracts the contact can be indirect. Here binding means that the protein was enriched with, or labelled near, the bait; the list need not be complete.
